The list is a part of this screen's results and no random one: it gathers some chemical classes. Other doses and runs of a compound may be missing. T/C is the treated group as % of the vehicle group. Some entries give survivors of the animals treated and no T/C: the source holds a T/C of zero for them, seemingly a mark for toxic or unscored doses. Some doses without a T/C left all or most animals alive at the check, yet need not have been tolerated: survival well below the control is almost never listed, so the zero probably covers shortened survival too. Survivors were counted at the toxicity check, usually on the fifth day, unless a day is given; later deaths do not show. Schedules are NCI's codes, read here as Q, the interval in days (D) or hours (H), X, the number of doses. Where survival is the endpoint, the PubChem record calls one and a half times the control and up active, and a quarter to a half above the control has no call in these data; cut-offs in other NCI protocols can differ. Some entries hold several experiments; the results are listed from low to high. Some entries show no survivor count and are marked so; the dose need not have been tolerated. Some T/C values carry the count of animals alive at the toxicity check (mostly the fifth day); without a count or a note in brackets, all were alive then.
Tested on: L1210 leukemia ip in BDF1 mice, survival T/C
Assay: NCI In Vivo Anticancer Drug Screen. Data for tumor model L1210 Leukemia (intraperitoneal) in B6D2F1 (BDF1) mice
Conditions: T/C endpoint: mean survival time, higher T/C = longer survival
[1] = dose: 400.0 mg/kg/injection, schedule: Q01DX009 (ip), vehicle: saline

CC(C)OP(C)(=O)OCC(Cl)(Cl)Cl (stereo not given)
T/C (dose: 100.0 mg/kg/injection, schedule: Q04DX002 (ip), vehicle: Klucel (hydroxypropylcellulose) (HPC)): 115 % of control [survivor count not shown]
T/C (dose: 200.0 mg/kg/injection, schedule: Q04DX002 (ip), vehicle: Klucel (hydroxypropylcellulose) (HPC)): 112 % of control [survivor count not shown]
T/C (dose: 400.0 mg/kg/injection, schedule: Q04DX002 (ip), vehicle: Klucel (hydroxypropylcellulose) (HPC)): 108 % of control [survivor count not shown]

COC(=O)CC[N+]1(C)CC1
T/C (dose: 100.0 mg/kg/injection, schedule: Q01DX009 (ip), vehicle: Klucel (hydroxypropylcellulose) (HPC)): 93 % of control
T/C (dose: 100.0 mg/kg/injection, schedule: Q04DX003 (ip), vehicle: Klucel (hydroxypropylcellulose) (HPC)): 109 % of control
T/C (dose: 200.0 mg/kg/injection, schedule: Q01DX009 (ip), vehicle: Klucel (hydroxypropylcellulose) (HPC)): 90 % of control
T/C (dose: 200.0 mg/kg/injection, schedule: Q04DX003 (ip), vehicle: Klucel (hydroxypropylcellulose) (HPC)): 94 % of control
T/C (dose: 400.0 mg/kg/injection, schedule: Q01DX009 (ip), vehicle: Klucel (hydroxypropylcellulose) (HPC)): 97 % of control [4 of 6 alive]
T/C (dose: 400.0 mg/kg/injection, schedule: Q04DX003 (ip), vehicle: Klucel (hydroxypropylcellulose) (HPC)): 113 % of control

CCCCCCCOP(=O)(CC)OCCCCCCC
T/C (dose: 5.0 mg/kg/injection, schedule: Q01DX001 (ip), vehicle: saline): 103 % of control [survivor count not shown]
T/C (dose: 10.0 mg/kg/injection, schedule: Q01DX001 (ip), vehicle: saline): 94 % of control [survivor count not shown]
T/C (dose: 20.0 mg/kg/injection, schedule: Q01DX001 (ip), vehicle: saline): 96 % of control [survivor count not shown]
T/C (dose: 40.0 mg/kg/injection, schedule: Q01DX001 (ip), vehicle: saline): 105 % of control [survivor count not shown]
T/C (dose: 80.0 mg/kg/injection, schedule: Q01DX001 (ip), vehicle: saline): 94 % of control [survivor count not shown]

CC1(C)CN1P(=O)(Nc1ncccn1)N1CC1(C)C (stereo not given)
T/C (dose: 25.0 mg/kg/injection, schedule: Q04DX003 (ip), vehicle: saline): 105 % of control
T/C (dose: 29.0 mg/kg/injection, schedule: Q01DX009 (ip), vehicle: saline): 132 % of control
T/C (dose: 44.0 mg/kg/injection, schedule: Q01DX009 (ip), vehicle: saline): 125 % of control
T/C (dose: 50.0 mg/kg/injection, schedule: Q01DX001 (ip), vehicle: saline): 126 % of control
T/C (dose: 50.0 mg/kg/injection, schedule: Q04DX003 (ip), vehicle: saline): 113 % of control
T/C (dose: 52.0 mg/kg/injection, schedule: Q01DX009 (ip), vehicle: saline): 123 % of control
T/C (dose: 66.0 mg/kg/injection, schedule: Q01DX009 (ip), vehicle: saline): 138 % of control
T/C (dose: 75.0 mg/kg/injection, schedule: Q01DX001 (ip), vehicle: saline): 126 % of control
T/C (dose: 79.0 mg/kg/injection, schedule: Q01DX009 (ip), vehicle: saline): 124 % of control
T/C (dose: 89.0 mg/kg/injection, schedule: Q01DX001 (ip), vehicle: saline): 142 % of control
T/C (dose: 90.0 mg/kg/injection, schedule: Q04DX003 (ip), vehicle: saline): 115 % of control
T/C (dose: 100.0 mg/kg/injection, schedule: Q01DX009 (ip), vehicle: saline): 150 % of control
T/C (dose: 118.0 mg/kg/injection, schedule: Q01DX001 (ip), vehicle: saline): 127 and 148 % of control
T/C (dose: 118.0 mg/kg/injection, schedule: Q01DX009 (ip), vehicle: saline): 131 % of control
T/C (dose: 118.0 mg/kg/injection, schedule: Q04DX003 (ip), vehicle: saline): 140 % of control
T/C (dose: 133.0 mg/kg/injection, schedule: Q01DX001 (ip), vehicle: saline): 130 % of control
T/C (dose: 177.0 mg/kg/injection, schedule: Q01DX001 (ip), vehicle: saline): 130 and 171 % of control
T/C (dose: 177.0 mg/kg/injection, schedule: Q01DX009 (ip), vehicle: saline): 149 % of control
T/C (dose: 177.0 mg/kg/injection, schedule: Q04DX003 (ip), vehicle: saline): 143 % of control
T/C (dose: 200.0 mg/kg/injection, schedule: Q01DX001 (ip), vehicle: saline): 125 % of control
T/C (dose: 200.0 mg/kg/injection, schedule: Q01DX009 (ip), vehicle: saline): 214 % of control
T/C (dose: 266.0 mg/kg/injection, schedule: Q01DX001 (ip), vehicle: saline): 140 and 204 % of control
T/C (dose: 266.0 mg/kg/injection, schedule: Q01DX009 (ip), vehicle: saline): 152 % of control
T/C (dose: 266.0 mg/kg/injection, schedule: Q04DX003 (ip), vehicle: saline): 150 % of control
T/C (dose: 300.0 mg/kg/injection, schedule: Q01DX001 (ip), vehicle: saline): 127 % of control
T/C (dose: 400.0 mg/kg/injection, schedule: Q01DX001 (ip), vehicle: saline): 135 and 153 % of control
T/C [1]: 160 % of control
survivor count [1]: 5 of 6
T/C (dose: 400.0 mg/kg/injection, schedule: Q04DX003 (ip), vehicle: saline): 192 % of control
T/C (dose: 600.0 mg/kg/injection, schedule: Q01DX001 (ip), vehicle: saline): 155 % of control
T/C (dose: 800.0 mg/kg/injection, schedule: Q01DX001 (ip), vehicle: saline): 203 % of control
